Data taken from ChEMBL document CHEMBL3988442, “University of Dundee, Small-Polar-MMV Screening Library” (2021).

The filed quantity is “Percent Effect” (%). The controls that fix the scale are not given in the record; negative values are as filed. This is an unselected part of the compounds tested. Two or more numbers in one place are separate tests of the same structure; such repeats can differ widely. A dash means the value is not listed here; it may have been measured.

Toxoplasma: 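Assay of Toxoplasma gondii numbers, read through their beta-galactosidase reporter with a colour substrate. Concentration: 10 µM. Higher reads as fewer parasites (inferred from which compounds were picked for retests). About 67,000 compounds were tested under these conditions; 0.38% (about 260) showed 50% or more at least once.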
Leishmania in macrophages: 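Cell assay of Leishmania donovani living inside macrophages; the read-out is not stated. Tested at 30 µM. Higher reads as stronger inhibition (inferred: compounds with an IC50 in retests scored well above the rest). Size under these conditions: about 69,000 compounds, about 1,000 of them at 50% or above in at least one test.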

compound | Toxoplasma | Leishmania in macrophages
CCC(CC)C(=O)NCCc1ccn(-c2ccccc2)n1 | -5.576% | -2.598%
CCN(CC)C(=O)CN1CCc2c(nc(C3CCNCC3)nc2NC)C1.Cl | 12.54% | 19.65%
NC(=O)C1CCN(C(=O)NC2CCc3cc(Cl)ccc32)CC1 (configuration not stated) | 16.51% | 16.3%
Cn1ccnc1CN1CCC2(CC1)CN(c1ccccn1)CCO2.O=C(O)C(F)(F)F.O=C(O)C(F)(F)F | -0.9042% | -21.51%
O=C(CCn1cnnc1)N1CCCC(c2ncc[nH]2)C1 (configuration not stated) | 0.1095% | 4.403%
Cc1nn(C)cc1S(=O)(=O)NC1(CN2CCOCC2)CCCCC1 | -6.555% | -17.08%
CN(Cc1cccnc1)Cc1cncc2c1CCN(Cc1ccoc1)C2.Cl.Cl.Cl | -31.55% | 24.73%
Cc1nc(C2CCCN(S(C)(=O)=O)C2)sc1Br (configuration not stated) | - | 12.92%
Cc1cnn(C2CCCN(C(=O)Cn3ccc(=O)n(C)c3=O)C2)c1 (configuration not stated) | -2.641% | 14.52%
COC(=O)c1ccc(CNCc2cn(C)nc2C)cc1 | 6.768% | 26.6%
Cc1nc(C#N)c(N2CCC(c3nc(-c4ccc(F)cc4)no3)CC2)o1 | -34.29% | -30.57%
COCC(=O)N[C@@H]1CN(Cc2ccc3c(c2)OCCO3)C[C@H]1O | 3.933% | -5.749%
Cc1ncsc1C(=O)NCCCN1CCCCCC1=O | -7.265% | -14.82%
COc1ccc(C[C@H]2CN(c3cc(OC)ncn3)CC[C@@H]2OC)cc1.O=C(O)C(F)(F)F | 6.773% | 43.93%
O=C(O)c1ccc(=O)n(CC(c2ccc(Cl)cc2)N2CCCCCC2)c1 (configuration not stated) | -13.14% | 22.97%
Cc1cc(=O)n(CC(=O)NC(C)C)c(Nc2ccc(F)c(C)c2)n1 | 4.795% | 24.86%
CC(C)S(=O)(=O)C(C)C(=O)Nc1ccc2oc(C3CC3)nc2c1 (configuration not stated) | 3.02% | 11.21%
CC(C(=O)N1CCCC1)N1CCCN(C(=O)Oc2ccccc2)CC1 (configuration not stated) | 1.908% | 2.86%
O=C(O)C(F)(F)F.[H][C@@]12CCN(Cc3ccc(C)cc3)C[C@]1([H])O[C@@H](C(=O)N(C)C)C2 | 0.8918% | 26.61%
O=C(Nc1ccnc(OC2CCOC2)c1)C1CCC1 (configuration not stated) | -6.862% | -21.26%
CS(=O)(=O)c1ccc(-c2cc(O)cc(CCC3CCCCN3)c2)cc1 (configuration not stated) | 50.66% | 15.76%
CCc1ccc(S(=O)(=O)Nc2cnccc2C)s1 | 6.46% | 35.26%
c1cnc(N2CCN(Cn3nccc3-c3cccnc3)CC2)nc1 | 6.055% | 61.02%
CS(=O)(=O)N1Cc2nccn2CC(Cn2ncccc2=O)C1 (configuration not stated) | 2.671% | -14.18%
COCCN1CC(Nc2nc(C(C)C)nc3c2cnn3C)CC1=O (configuration not stated) | -4.795% | 19.49%
CN1CCC(c2nnc(CN3CCCC3)n2C2CC2)CC1 | -6.524% | -0.4593%
CC(C)c1nnc2sc(CC3CCS(=O)(=O)C3)nn12 (configuration not stated) | 15.57% | -6.883%
CCCN1CC2(CCN(C)CC2)CC1C(=O)NCCn1nc(C)nc1C (configuration not stated) | 3.484% | 9.496%
c1cc(C2CCN(c3cnccn3)CC2)ccn1 | 21.65% | -1.435%
COc1ccc(CN(Cc2cccnc2)CC2CCCO2)c(OC)c1.O=C(O)CC(O)(CC(=O)O)C(=O)O (configuration not stated) | 2.385% | 24.98%
Cc1ccc(CNC(C)c2ccc3[nH]c(=O)[nH]c3c2)s1 (configuration not stated) | 2.01% | 29.49%
CN(C)CCOCc1nnc2n1CCN(Cc1ccco1)C2.O=C(O)C(F)(F)F.O=C(O)C(F)(F)F | 13.69% | 35.37%
CCC1=NC(SCC(=O)c2ccc(OC)cc2)c2cc(CC)sc2N1 (configuration not stated) | 50.44% | -62.39%
CCc1nc(NCC(=O)N2CCOCC2)c2c(n1)c(C)nn2CC | -2.271% | 6.056%
Cc1cnn(CCC(=O)N2CCCN(c3nc(C)cs3)CC2)c1 | -2.84% | 22.27%
Cc1cnc(CCNc2cccc(CC3CCCNC3)n2)s1.Cl (configuration not stated) | 20.56% | -6.529%
O=C(NC1CC(=O)N(C2CC2)C1)c1cccs1 (configuration not stated) | 4.648% | -1.771%
CCc1nc(N)nc(N2CCCC3(CN(C)C(=O)O3)C2)c1C (configuration not stated) | 3.211% | 36.23%
[H][C@@]12CCCCN(C)[C@]1([H])[C@@H](c1ccccc1)CCN2C(=O)c1ccccn1 | -23.71% | 4.908%
CN(C)C(=O)Cn1ccc2cc(NC(=O)N3CCSCC3)ccc21 | -1.061% | 24.28%
CC(C)(C)c1nnc(CSc2ccccn2)o1 | -1.431% | -15.57%
CC(CNC(=O)c1c[nH]nn1)Oc1ccccc1Br (configuration not stated) | 1.812% | 14.49%
COCc1nc(CNC2CCSCC2)no1 | -6.801% | 7.498%
CN1N=C(C(=O)Nc2cc(F)ccc2OCC2CCCO2)CCC1=O (configuration not stated) | 0.5294% | 27.95%
CCc1ccc(C(COC)NC(=O)c2ccc(NC(C)=O)cc2)o1 (configuration not stated) | 3.704% | -4.032%
CC(=O)N1CCC(Cc2cnc(-c3c(C)nn(C)c3C)cn2)C1 (configuration not stated) | -2.274% | -9.097%
O=C1CCC(=O)N1CCN1CCC(=Cc2ccccc2)CC1 | 1.853% | 5.63%
Cc1cccc(-c2nccnc2C2CCN(C)CC2)c1C | -16.79% | 32.11%
CS(=O)(=O)NCc1cncc2c1CCN(C(=O)c1cccnc1)C2.Cl.Cl | 10.7% | 11.54%
[H][C@@]12CCN(c3ncccn3)C[C@]1([H])[C@H](C(=O)N1CCN(C)CC1)CCO2 | 0% | 11.24%
CC(=O)N1CCc2c(nc(-c3ccccn3)nc2N(C)CC(O)CO)C1 (configuration not stated) | 3.248% | 24.51%
CCC(CC)C(=O)NCc1cnn(CC)c1 | -6.991% | -26.51%
COC(=O)CC(C)(C)CC(=O)N1CCC(C(F)(F)F)CC1 | 11.92% | 4.42% & 24.86%
Cc1nsc(NCc2ccc(S(=O)(=O)N(C)C(C)C)cc2)n1 | -1.979% | 14.45%
Cn1cccc1CNCC1CCCn2cc(C(C)(C)C)nc21 (configuration not stated) | 2.504% | 40.99%
CC(=O)N1CCCN(C(=O)NCc2ccc(Cl)s2)CC1 | -9.864% | 17.01%
Cc1cc(C)c2c(c1)C(NC(=O)CSCC(N)=O)CCO2 (configuration not stated) | 3.001% | 7.728%
Cc1ccsc1CN(CCN(C)C)Cc1ccccn1 | 4.827% | 29.49%
COc1ccc(Nc2nc3c(C)nn(C)c3c(=O)n2C)c(OC)c1 | 6.937% | 12.5%
COCC1CN(C(C)=O)CCN(c2cc(C)ncn2)C1 (configuration not stated) | 18.45% | 13.78%
O=C(C(c1ccc(F)cc1)N1CCCCC1)N1CCn2cncc2C1 (configuration not stated) | 0.6775% | 14.72%

The first 8 entries again:

CCC(CC)C(=O)NCCc1ccn(-c2ccccc2)n1 read Toxoplasma: -5.576%; Leishmania in macrophages: -2.598%.
CCN(CC)C(=O)CN1CCc2c(nc(C3CCNCC3)nc2NC)C1.Cl read Toxoplasma: 12.54%; Leishmania in macrophages: 19.65%.
NC(=O)C1CCN(C(=O)NC2CCc3cc(Cl)ccc32)CC1 (configuration not stated) read Toxoplasma: 16.51%; Leishmania in macrophages: 16.3%.
Cn1ccnc1CN1CCC2(CC1)CN(c1ccccn1)CCO2.O=C(O)C(F)(F)F.O=C(O)C(F)(F)F read Toxoplasma: -0.9042%; Leishmania in macrophages: -21.51%.
O=C(CCn1cnnc1)N1CCCC(c2ncc[nH]2)C1 (configuration not stated) read Toxoplasma: 0.1095%; Leishmania in macrophages: 4.403%.
Cc1nn(C)cc1S(=O)(=O)NC1(CN2CCOCC2)CCCCC1 read Toxoplasma: -6.555%; Leishmania in macrophages: -17.08%.
CN(Cc1cccnc1)Cc1cncc2c1CCN(Cc1ccoc1)C2.Cl.Cl.Cl read Toxoplasma: -31.55%; Leishmania in macrophages: 24.73%.
Cc1nc(C2CCCN(S(C)(=O)=O)C2)sc1Br (configuration not stated) read Leishmania in macrophages: 12.92%.